Literature values in paper PMC9770967, “Native holdup (nHU) to measure binding affinities from cell extracts” (Science Advances, 2022).

System: HEK293T cells
Details: estimated total protein concentration; cited from earlier work

Molecule | [Protein] (nM) in HEK293T [nM]
SNX2: component of the SNX-BAR complex (protein, UniProt O60749 1-519, looked up) Sorting nexin-2: MAAEREPPPLGDGKPTDFEDLEDGEDLFTSTVSTLESSPSSPEPASLPAEDISANSNGPKPTEVVLDDDREDLFAEATEEVSLDSPEREPILSSEPSPAVTPVTPTTLIAPRIESKSMSAPVIFDRSREEIEEEANGDIFDIEIGVSDPEKVGDGMNAYMAYRVTTKTSLSMFSKSEFSVKRRFSDFLGLHSKLASKYLHVGYIVPPAPEKSIVGMTKVKVGKEDSSSTEFVEKRRAALERYLQRTVKHPTLLQDPDLRQFLESSELPRAVNTQALSGAGILRMVNKAADAVNKMTIKMNESDAWFEEKQQQFENLDQQLRKLHVSVEALVCHRKELSANTAAFAKSAAMLGNSEDHTALSRALSQLAEVEEKIDQLHQEQAFADFYMFSELLSDYIRLIAAVKGVFDHRMKCWQKWEDAQITLLKKREAEAKMMVANKPDKIQQAKNEIREWEAKVQQGERDFEQISKTIRKEVGRFEKERVKDFKTVIIKYLESLVQTQQQLIKYWEAFLPEAKAIA | 984
SNX5: component of the SNX-BAR complex (protein, UniProt Q9Y5X3 2-404, looked up) Sorting nexin-5: AAVPELLQQQEEDRSKLRSVSVDLNVDPSLQIDIPDALSERDKVKFTVHTKTTLPTFQSPEFSVTRQHEDFVWLHDTLIETTDYAGLIIPPAPTKPDFDGPREKMQKLGEGEGSMTKEEFAKMKQELEAEYLAVFKKTVSSHEVFLQRLSSHPVLSKDRNFHVFLEYDQDLSVRRKNTKEMFGGFFKSVVKSADEVLFTGVKEVDDFFEQEKNFLINYYNRIKDSCVKADKMTRSHKNVADDYIHTAACLHSLALEEPTVIKKYLLKVAELFEKLRKVEGRVSSDEDLKLTELLRYYMLNIEAAKDLLYRRTKALIDYENSNKALDKARLKSKDVKLAEAHQQECCQKFEQLSESAKEELINFKRKRVAAFRKNLIEMSELEIKHARNNVSLLQSCIDLFKNN | 629
SNX6: component of the SNX-BAR complex (protein, UniProt Q9UNH7 1-406, looked up) Sorting nexin-6: MMEGLDDGPDFLSEEDRGLKAINVDLQSDAALQVDISDALSERDKVKFTVHTKSSLPNFKQNEFSVVRQHEEFIWLHDSFVENEDYAGYIIPPAPPRPDFDASREKLQKLGEGEGSMTKEEFTKMKQELEAEYLAIFKKTVAMHEVFLCRVAAHPILRRDLNFHVFLEYNQDLSVRGKNKKEKLEDFFKNMVKSADGVIVSGVKDVDDFFEHERTFLLEYHNRVKDASAKSDRMTRSHKSAADDYNRIGSSLYALGTQDSTDICKFFLKVSELFDKTRKIEARVSADEDLKLSDLLKYYLRESQAAKDLLYRRSRSLVDYENANKALDKARAKNKDVLQAETSQQLCCQKFEKISESAKQELIDFKTRRVAAFRKNLVELAELELKHAKGNLQLLQNCLAVLNGDT | 592
WASH2: component of the WASH complex (protein) MTPVRMQHSLAGQTYAVPLIQPDLRREEAVQQMADALQYLQKVSGDIFSRISQQVEQSRSQVQAIGEKVSLAQAKIEKIKGSKKAIKVFSSAKYPAPERLQEYGSIFTGAQDPGLQRRPRHRIQSKHRPLDERALQEKLKDFPVCVSTKPEPEDDAEEGLGGLPSNISSVSSLLLFNTTENLYKKYVFLDPLAGAVTKTHVMLGAETEEKLFDAPLSISKREQLEQQVPENYFYVPDLGQVPEIDVPSYLPDLPGIANDLMYIADLGPGIAPSAPGTIPELPTFHTEVAEPLKVDLQDGVLTPPPPPPPPPPAPEVLASAPPLPPSTAAPVGQGARQDDSSSSASPSVQGAPREVVDPSGGRATLLESIRQAGGIGKAKLRSMKERKLEKKKQKEQEQVRATSQGGHLMSDLFNKLVMRRKGISGKGPGAGEGPGGAFARVSDSIPPLPPPQQPQAEEDEDDWES | 20
Strumpellin: component of the WASH complex (protein, UniProt Q12768 1-1159, looked up) WASH complex subunit 5: MLDFLAENNLCGQAILRIVSCGNAIIAELLRLSEFIPAVFRLKDRADQQKYGDIIFDFSYFKGPELWESKLDAKPELQDLDEEFRENNIEIVTRFYLAFQSVHKYIVDLNRYLDDLNEGVYIQQTLETVLLNEDGKQLLCEALYLYGVMLLVIDQKIEGEVRERMLVSYYRYSAARSSADSNMDDICKLLRSTGYSSQPGAKRPSNYPESYFQRVPINESFISMVIGRLRSDDIYNQVSAYPLPEHRSTALANQAAMLYVILYFEPSILHTHQAKMREIVDKYFPDNWVISIYMGITVNLVDAWEPYKAAKTALNNTLDLSNVREQASRYATVSERVHAQVQQFLKEGYLREEMVLDNIPKLLNCLRDCNVAIRWLMLHTADSACDPNNKRLRQIKDQILTDSRYNPRILFQLLLDTAQFEFILKEMFKQMLSEKQTKWEHYKKEGSERMTELADVFSGVKPLTRVEKNENLQAWFREISKQILSLNYDDSTAAGRKTVQLIQALEEVQEFHQLESNLQVCQFLADTRKFLHQMIRTINIKEEVLITMQIVGDLSFAWQLIDSFTSIMQESIRVNPSMVTKLRATFLKLASALDLPLLRINQANSPDLLSVSQYYSGELVSYVRKVLQIIPESMFTSLLKIIKLQTHDIIEVPTRLDKDKLRDYAQLGPRYEVAKLTHAISIFTEGILMMKTTLVGIIKVDPKQLLEDGIRKELVKRVAFALHRGLIFNPRAKPSELMPKLKELGATMDGFHRSFEYIQDYVNIYGLKIWQEEVSRIINYNVEQECNNFLRTKIQDWQSMYQSTHIPIPKFTPVDESVTFIGRLCREILRITDPKMTCHIDQLNTWYDMKTHQEVTSSRLFSEIQTTLGTFGLNGLDRLLCFMIVKELQNFLSMFQKIILRDRTVQDTLKTLMNAVSPLKSIVANSNKIYFSAIAKTQKIWTAYLEAIMKVGQMQILRQQIANELNYSCRFDSKHLAAALENLNKALLADIEAHYQDPSLPYPKEDNTLLYEITAYLEAAGIHNPLNKIYITTKRLPYFPIVNFLFLIAQLPKLQYNKNLGMVCRKPTDPVDWPPLVLGLLTLLKQFHSRYTEQFLALIGQFICSTVEQCTSQKIPEIPADVVGALLFLEDYVRYTKLPRRVAEAHVPNFIFDEFRTVL | 87
